Results reported in PubChem BioAssay AID322 (DTP/NCI, 2004).
The list is a part of this screen's results and no random one: it is rich in T/C values a quarter to a half above the control, in often repeated tests (any T/C) and in doses without a T/C. Further doses and runs are listed elsewhere. T/C gives the treated animals as a percentage of the vehicle group. Some entries give survivors of the animals treated and no T/C: the source files T/C as zero there, which appears to mark a toxic dose or a test without result, not a measured value. Some survivor counts are full or nearly so, which does not show that the dose was tolerated: the source hardly ever lists a survival T/C far under the control, and the zero likely stands for such cases as well. Counts of survivors are from the toxicity check (mostly the fifth day) where no day follows; animals may have died later. Schedules are NCI's codes, read here as Q, the interval in days (D) or hours (H), X, the number of doses. Marks such as (2×) count equal records among those shown. Some entries were tested several times; their values stand side by side, smallest first. Where survival is the endpoint, the PubChem record calls one and a half times the control and up active, and a quarter to a half above the control has no call in these data; cut-offs in other NCI protocols can differ. Some T/C values carry the count of animals alive at the toxicity check (mostly the fifth day); where none is given, no animal had died by that day.

Test system: CD2F1 mice, P388/ADR leukemia ip, median survival T/C
Assay: NCI In Vivo Anticancer Drug Screen. Data for tumor model P388 Leukemia resistant to Adriamycin; NSC 123127, Developed at Scr 08 (intraperitoneal) in CD2F1 (CDF1) mice
Conditions: T/C endpoint: median survival time, higher T/C = longer survival
Experimental: The antitumor activity of compounds was measured in mice bearing transplantable tumors. Survival or tumor size were measured and the results are expressed as the measurement made in the treated group (T) divided by the measurement made in the vehicle treated control group (C). The tumor model used in this assay is P388 Leukemia resistant to Adriamycin; NSC 123127, Developed at Scr 08 (intraperitoneal) in CD2F1 (CDF1) mice

[1] = dose: 12.0 mg/kg/injection, schedule: Q01DX005 (ip), vehicle: saline with Tween-80
[2] = dose: 6.0 mg/kg/injection, schedule: Q01DX005 (ip), vehicle: saline with Tween-80

CC[C@@]1(O)CC(OC2CC(N3CCOCC3)C(O)C(C)O2)c2c(O)c3c(c(O)c2[C@H]1O)C(=O)c1cccc(O)c1C3=O (stereo not given in full) was tested, and the T/C (dose: 0.89 mg/kg/injection, schedule: Q04DX003 (iv), vehicle: saline) was 133 % of control, the T/C (dose: 1.33 mg/kg/injection, schedule: Q04DX003 (iv), vehicle: saline) was 140 % of control and the T/C (dose: 2.0 mg/kg/injection, schedule: Q04DX003 (iv), vehicle: saline) was 139 % of control. For the same molecule, the survivor count (dose: 4.5 mg/kg/injection, schedule: Q04DX003 (iv), vehicle: saline) was 10 of 10.

With O=[N+]([O-])c1ccc(N(CCO)CCO)c2c1no[n+]2[O-] the T/C (dose: 12.5 mg/kg/injection, schedule: Q01DX005 (ip), vehicle: saline with Tween-80) was 136 % of control, the T/C (dose: 25.0 mg/kg/injection, schedule: Q01DX005 (ip), vehicle: saline with Tween-80) was 135 % of control and the T/C (dose: 50.0 mg/kg/injection, schedule: Q01DX005 (ip), vehicle: saline with Tween-80) was 128 % of control.

In the case of CN(Cc1cnc2nc(N)nc(N)c2n1)c1ccc(C(=O)N[C@@H](CCC(=O)O)C(=O)O)cc1, the T/C (dose: 0.38 mg/kg/injection, schedule: Q01DX005 (ip), vehicle: sodium bicarbonate) is reported as 145 % of control, the T/C (dose: 0.75 mg/kg/injection, schedule: Q01DX005 (ip), vehicle: sodium bicarbonate) is reported as 142 % of control and the T/C (dose: 1.5 mg/kg/injection, schedule: Q01DX005 (ip), vehicle: sodium bicarbonate) is reported as 149 % of control. The survivor count (dose: 6.0 mg/kg/injection, schedule: Q01DX005 (ip), vehicle: sodium bicarbonate) was 10 of 10 (2×).

For Cc1cc(O)c2c(c1O)C(=O)C13C(=C2O)C(=O)C2C(O)C1C1C(O)C3C(=O)C3=C(O)c4c(O)cc(C)c(O)c4C(=O)C321 (stereo not given), the survivor count [1] was 6 of 10.

In the case of O=C(O)CCCc1ccc(N(CCCl)CCCl)cc1, the T/C (dose: 2.5 mg/kg/injection, schedule: Q01DX005 (ip), vehicle: saline with Tween-80) is reported as 137 % of control, the T/C (dose: 5.0 mg/kg/injection, schedule: Q01DX005 (ip), vehicle: saline with Tween-80) is reported as 141 % of control and the survivor count (dose: 20.0 mg/kg/injection, schedule: Q01DX005 (ip), vehicle: saline with Tween-80) is reported as 5 of 10.

For CCOc1ccc(-c2nc3ccc(-c4nc5ccc(N6CCN(C)CC6)cc5[nH]4)cc3[nH]2)cc1, the survivor count (dose: 25.0 mg/kg/injection, schedule: Q01DX005 (ip), vehicle: water) was 9 of 10.

COc1ccc(C(C)c2cc3c(cc2OC)OCO3)cc1 (stereo not given) was tested, and the T/C (dose: 100.0 mg/kg/injection, schedule: Q01DX005 (ip), vehicle: saline with Tween-80) was 137 % of control and the survivor count (dose: 200.0 mg/kg/injection, schedule: Q01DX005 (ip), vehicle: saline with Tween-80) was 10 of 10.

With OC(CBr)C(O)C(O)C(O)CBr (stereo not given) the T/C (dose: 40.0 mg/kg/injection, schedule: Q01DX009 (ip), vehicle: Klucel (hydroxypropylcellulose) (HPC)) was 146 % of control.

CO[C@@]12[C@H](COC(N)=O)C3=C(C(=O)C(C)=C(N)C3=O)N1C[C@@H]1N[C@@H]12 was tested, and the T/C (dose: 0.25 mg/kg/injection, schedule: Q01DX009 (ip), vehicle: saline with Tween-80) was 145 and 149 % of control, the survivor count (dose: 4.0 mg/kg/injection, schedule: Q01DX009 (ip), vehicle: saline with Tween-80) was 10 of 10 and the T/C (dose: 8.0 mg/kg/injection, schedule: Q01DX001 (ip), vehicle: saline) was 139 % of control. For the same molecule, the T/C (dose: 8.0 mg/kg/injection, schedule: Q01DX001 (ip), vehicle: water) was 127 % of control.

COc1cc(C)c(C2NC(=O)c3ccccc3N2)cc1C (stereo not given) was tested, and the T/C (dose: 172.0 mg/kg/injection, schedule: Q01DX005 (ip), vehicle: Klucel (hydroxypropylcellulose) (HPC)) was 134 % of control.

In the case of CN(C)/N=N/c1nc[nH]c1C(N)=O, the T/C (dose: 25.0 mg/kg/injection, schedule: Q01DX009 (ip), vehicle: distilled water + Tween-80) is reported as 131 % of control, the T/C (dose: 50.0 mg/kg/injection, schedule: Q01DX009 (ip), vehicle: distilled water + Tween-80) is reported as 131 % of control and the T/C (dose: 100.0 mg/kg/injection, schedule: Q01DX009 (ip), vehicle: distilled water + Tween-80) is reported as 131 % of control.

For CC[C@@]1(O)C(=O)OCc2c1cc1n(c2=O)Cc2cc3ccccc3nc2-1, the T/C (dose: 0.75 mg/kg/injection, schedule: Q01DX005 (ip), vehicle: saline with Tween-80) was 147 % of control, the survivor count [2] was 10 of 10 and the survivor count (dose: 10.0 mg/kg/injection, schedule: Q01DX005 (ip), vehicle: saline with Tween-80) was 10 of 10. For the same molecule, the survivor count [1] was 10 of 10, the survivor count (dose: 16.67 mg/kg/injection, schedule: Q01DX005 (ip), vehicle: saline with Tween-80) was 10 of 10 and the survivor count (dose: 22.5 mg/kg/injection, schedule: Q04DX002 (ip), vehicle: saline with Tween-80) was 10 of 10.

NC(N)=NS(=O)(=O)c1ccc(NCc2c3ccccc3nc3ccccc23)cc1 was tested, and the survivor count (dose: 800.0 mg/kg/injection, schedule: Q04DX003 (ip), vehicle: Klucel (hydroxypropylcellulose) (HPC)) was 10 of 10.

CCCCCCCCCCCCN1C(C)=CS/C1=C\C=C\c1scc(C)[n+]1CCCCCCCCCCCC was tested, and the survivor count [2] was 6 of 6 and the survivor count [1] was 0 of 6.

In the case of COc1ccc2c(c1)-c1nn(CCCN(C)C)c3ccc([N+](=O)[O-])c(c13)N2, the T/C (dose: 4.5 mg/kg/injection, schedule: Q01DX005 (ip), vehicle: water) is reported as 125 % of control, the T/C (dose: 7.5 mg/kg/injection, schedule: Q01DX005 (ip), vehicle: water) is reported as 125 % of control and the T/C (dose: 12.5 mg/kg/injection, schedule: Q01DX005 (ip), vehicle: water) is reported as 133 % of control. The T/C (dose: 21.0 mg/kg/injection, schedule: Q01DX005 (ip), vehicle: water) was 145 % of control and the T/C (dose: 35.0 mg/kg/injection, schedule: Q01DX005 (ip), vehicle: water) was 147 % of control.

In the case of CCOC1NC(=O)Oc2ccccc21 (stereo not given), the survivor count (dose: 12.5 mg/kg/injection, schedule: Q01DX005 (ip), vehicle: Klucel (hydroxypropylcellulose) (HPC)) is reported as 10 of 10, the T/C (dose: 200.0 mg/kg/injection, schedule: Q01DX005 (ip), vehicle: Klucel (hydroxypropylcellulose) (HPC)) is reported as 133 % of control and the survivor count (dose: 400.0 mg/kg/injection, schedule: Q01DX005 (ip), vehicle: Klucel (hydroxypropylcellulose) (HPC)) is reported as 2 of 10. For the same molecule, the survivor count (dose: 556.0 mg/kg/injection, schedule: Q01DX005 (ip), vehicle: Klucel (hydroxypropylcellulose) (HPC)) was 0 of 10.

CSC1SCC2C(=O)N(C)C(C(C)C)C(=O)OCC(NC(=O)c3cnc4ccccc4n3)C(=O)NC(C)C(=O)N(C)C1C(=O)N(C)C(C(C)C)C(=O)OCC(NC(=O)c1cnc3ccccc3n1)C(=O)NC(C)C(=O)N2C (stereo not given) was tested, and the T/C (dose: 67.0 micrograms/kg/injection, schedule: Q01DX005 (ip), vehicle: saline) was 149 % of control [9 of 10 alive].

COc1cccc2c1C(=O)c1c(O)c3c(c(O)c1C2=O)C[C@@](O)(C(=O)CO)C[C@@H]3OC1CC(N2CCOCC2C#N)C(O)C(C)O1 (stereo not given in full) was tested, and the T/C (dose: 4.69 micrograms/kg/injection, schedule: Q04DX003 (ip), vehicle: saline with Tween-80) was 144 % of control, the survivor count (dose: 37.5 micrograms/kg/injection, schedule: Q04DX003 (ip), vehicle: saline with Tween-80) was 5 of 6 and the survivor count (dose: 50.0 micrograms/kg/injection, schedule: Q04DX003 (iv), vehicle: saline + alcohol) was 10 of 10. For the same molecule, the survivor count (dose: 75.0 micrograms/kg/injection, schedule: Q04DX003 (ip), vehicle: saline with Tween-80) was 1 of 6 and 2 of 6, the survivor count (dose: 75.0 micrograms/kg/injection, schedule: Q04DX003 (iv), vehicle: saline + alcohol) was 10 of 10 and the survivor count (dose: 150.0 micrograms/kg/injection, schedule: Q04DX003 (ip), vehicle: saline with Tween-80) was 0 of 6.

In the case of COc1nc(C(Cl)(Cl)Cl)c(Cl)c(OC)c1Cl, the T/C (dose: 37.0 mg/kg/injection, schedule: Q01DX005 (ip), vehicle: Klucel (hydroxypropylcellulose) (HPC)) is reported as 128 % of control, the T/C (dose: 50.0 mg/kg/injection, schedule: Q01DX005 (ip), vehicle: Klucel (hydroxypropylcellulose) (HPC)) is reported as 130 % of control and the T/C (dose: 67.0 mg/kg/injection, schedule: Q01DX005 (ip), vehicle: Klucel (hydroxypropylcellulose) (HPC), evaluated on day 45) is reported as 143 % of control. The T/C (dose: 67.0 mg/kg/injection, schedule: Q01DX005 (ip), vehicle: Klucel (hydroxypropylcellulose) (HPC), evaluated on day 46) was 126 % of control, the T/C (dose: 90.0 mg/kg/injection, schedule: Q01DX005 (ip), vehicle: Klucel (hydroxypropylcellulose) (HPC)) was 144 % of control and the T/C (dose: 120.0 mg/kg/injection, schedule: Q01DX005 (ip), vehicle: Klucel (hydroxypropylcellulose) (HPC)) was 141 % of control.

In the case of COc1cccc2c1C(CO)N1C(C#N)C3CC(C(=O)O)C(C1C2)N3C (stereo not given), the survivor count (dose: 50.0 mg/kg/injection, schedule: Q01DX005 (ip), vehicle: saline) is reported as 9 of 10 and the survivor count (dose: 50.0 mg/kg/injection, schedule: Q01DX005 (ip), vehicle: suspension in saline) is reported as 10 of 10.
